From patent US20070270359A1, “Nucleic Acid-Based Compounds and Methods of Use Thereof” (priority 2001, published 2007)
Some entries share one result that the patent states for a list of compounds.

System: HBV
Test: HBV-infected 2.2.15 cells treated in vitro, extracellular (virion) HBV DNA levels
Format: cell-based, Hepatitis B virus (HBV)
Conditions: HBV-infected human cells (2.2.15 cells), called significant

Row | Compound | depressions in extracellular (virion) HBV DNA levels relative to the control
1 | CO[C@H]1C(OP(O)(=S)OC[C@H]2O[C@@H](n3cnc4c(N)ncnc43)CC2O)[C@@H](CO)O[C@H]1n1ccc(=O)[nH]c1=O (some centres unmarked) [compound 3] | greater than 2 fold
2 | Nc1ncnc2c1ccn2[C@H]1CC(OP(=O)(S)OC[C@H]2O[C@@H](n3cnc4c(N)ncnc43)CC2O)[C@@H](CO)O1 (some centres unmarked) [compound 2] | greater than 2 fold
